# Assay results from US12281335B2, “Methods and compositions for delivery of viral vectors across the blood-brain barrier” (priority 2017, dated 2025).
# Test system: AAV9 virion
# Experiment: Phage display selection in vivo and on AAV9-coated plates, sequencing of phages
# Conditions: 40 individual phages sequenced, results from 38 clones
row,Substance,number of sequenced phages in which the peptide was detected [phages]
1,QFAALPVRAHYG-NH2 [PB5-3],6
2,ARSLEPAPSRHS-NH2 (C-terminal amide) [PB5-5],3
3,AIGDKAYTLRPT-NH2 (C-terminal amide) [PB5-14],3

# Ends that are not written are not given here.
